Reference: article PMC10468518
Results are given in words; binding and its absence hold for the method and conditions named. In cells and extracts the contact can be indirect. Some entries that bind do so weakly or less than the wild type.

By UniProt entry, the sequences of proteins in these tests, tags left out. Where a name states a change or a piece, a line headed by the entry shows the natural chain unless it says otherwise. Chains listed by the source or under a name are the forms on record and can include a tag or linker. Residues count along the entry.
Strep-mRunx2 wild-type (Q08775, residues 80-607): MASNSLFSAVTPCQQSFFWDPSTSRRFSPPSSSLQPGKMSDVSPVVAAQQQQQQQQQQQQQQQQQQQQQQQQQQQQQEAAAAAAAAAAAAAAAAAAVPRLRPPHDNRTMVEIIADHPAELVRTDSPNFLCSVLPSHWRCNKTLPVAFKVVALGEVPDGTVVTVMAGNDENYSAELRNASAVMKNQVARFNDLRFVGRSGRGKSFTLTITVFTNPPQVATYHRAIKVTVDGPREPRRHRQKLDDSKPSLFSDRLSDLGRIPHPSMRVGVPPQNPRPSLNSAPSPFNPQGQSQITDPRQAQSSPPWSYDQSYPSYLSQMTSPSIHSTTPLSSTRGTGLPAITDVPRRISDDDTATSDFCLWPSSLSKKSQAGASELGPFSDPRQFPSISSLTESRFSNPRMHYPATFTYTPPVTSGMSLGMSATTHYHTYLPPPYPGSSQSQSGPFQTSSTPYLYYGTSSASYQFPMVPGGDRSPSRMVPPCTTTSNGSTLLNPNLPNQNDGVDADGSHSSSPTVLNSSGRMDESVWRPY
Strep-mRunx2 R188K (Q08775, form named): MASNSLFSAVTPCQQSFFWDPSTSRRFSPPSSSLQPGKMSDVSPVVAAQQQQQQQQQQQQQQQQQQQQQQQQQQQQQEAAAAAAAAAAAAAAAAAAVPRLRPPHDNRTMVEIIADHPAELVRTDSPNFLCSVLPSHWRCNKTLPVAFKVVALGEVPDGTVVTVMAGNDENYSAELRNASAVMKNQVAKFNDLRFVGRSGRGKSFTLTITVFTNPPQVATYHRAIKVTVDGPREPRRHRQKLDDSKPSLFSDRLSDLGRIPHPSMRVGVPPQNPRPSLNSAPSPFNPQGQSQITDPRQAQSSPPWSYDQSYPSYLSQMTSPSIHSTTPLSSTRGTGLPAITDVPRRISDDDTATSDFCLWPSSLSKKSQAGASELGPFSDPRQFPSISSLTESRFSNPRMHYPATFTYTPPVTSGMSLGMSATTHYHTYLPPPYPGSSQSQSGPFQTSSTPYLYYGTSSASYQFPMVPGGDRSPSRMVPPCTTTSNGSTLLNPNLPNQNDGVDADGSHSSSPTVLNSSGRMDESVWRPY
Strep-mRunx2 R193K (Q08775, form named): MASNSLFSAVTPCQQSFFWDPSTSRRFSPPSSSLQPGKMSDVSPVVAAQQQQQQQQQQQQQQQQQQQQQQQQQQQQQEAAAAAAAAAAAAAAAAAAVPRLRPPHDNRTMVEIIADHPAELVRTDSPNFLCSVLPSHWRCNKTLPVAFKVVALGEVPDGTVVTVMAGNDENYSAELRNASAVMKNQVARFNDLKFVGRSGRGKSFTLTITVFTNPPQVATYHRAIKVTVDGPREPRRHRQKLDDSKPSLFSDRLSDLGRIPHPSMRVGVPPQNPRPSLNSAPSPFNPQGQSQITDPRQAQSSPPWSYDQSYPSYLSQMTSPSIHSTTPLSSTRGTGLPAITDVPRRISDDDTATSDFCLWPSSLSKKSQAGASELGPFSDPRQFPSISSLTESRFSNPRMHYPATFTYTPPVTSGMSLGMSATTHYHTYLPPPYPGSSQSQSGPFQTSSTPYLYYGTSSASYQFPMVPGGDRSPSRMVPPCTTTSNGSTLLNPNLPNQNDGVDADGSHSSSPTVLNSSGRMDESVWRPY
Strep-mRunx2 R197K (Q08775, form named): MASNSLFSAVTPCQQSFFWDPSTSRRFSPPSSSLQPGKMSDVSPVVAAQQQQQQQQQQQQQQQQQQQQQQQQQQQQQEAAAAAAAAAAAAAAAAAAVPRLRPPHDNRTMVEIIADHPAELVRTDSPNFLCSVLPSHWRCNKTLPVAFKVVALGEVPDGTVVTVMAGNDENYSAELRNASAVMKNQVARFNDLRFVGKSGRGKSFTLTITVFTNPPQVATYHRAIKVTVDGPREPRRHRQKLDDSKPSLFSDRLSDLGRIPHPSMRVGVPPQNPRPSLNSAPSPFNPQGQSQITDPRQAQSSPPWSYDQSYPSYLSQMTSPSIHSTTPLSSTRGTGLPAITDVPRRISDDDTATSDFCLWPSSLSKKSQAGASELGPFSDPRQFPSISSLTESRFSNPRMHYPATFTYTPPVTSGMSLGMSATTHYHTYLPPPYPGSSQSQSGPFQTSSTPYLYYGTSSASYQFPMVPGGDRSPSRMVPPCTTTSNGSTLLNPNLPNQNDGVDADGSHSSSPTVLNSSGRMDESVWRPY
Strep-mRunx2 R232K (Q08775, form named): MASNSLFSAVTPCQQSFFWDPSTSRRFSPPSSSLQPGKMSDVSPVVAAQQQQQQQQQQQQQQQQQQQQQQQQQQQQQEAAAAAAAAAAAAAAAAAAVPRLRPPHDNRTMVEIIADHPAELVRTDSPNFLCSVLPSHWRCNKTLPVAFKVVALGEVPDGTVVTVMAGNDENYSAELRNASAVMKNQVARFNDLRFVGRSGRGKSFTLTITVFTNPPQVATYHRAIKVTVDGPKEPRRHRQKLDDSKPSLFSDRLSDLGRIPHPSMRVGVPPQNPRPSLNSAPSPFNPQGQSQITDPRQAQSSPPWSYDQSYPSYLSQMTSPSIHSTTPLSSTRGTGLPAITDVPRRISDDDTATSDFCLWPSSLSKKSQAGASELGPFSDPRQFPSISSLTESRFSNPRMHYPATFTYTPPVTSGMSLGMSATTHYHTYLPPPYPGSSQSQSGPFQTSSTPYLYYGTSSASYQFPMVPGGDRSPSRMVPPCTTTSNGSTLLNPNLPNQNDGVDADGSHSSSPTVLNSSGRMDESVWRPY
Strep-mRunx2 R235K (Q08775, form named): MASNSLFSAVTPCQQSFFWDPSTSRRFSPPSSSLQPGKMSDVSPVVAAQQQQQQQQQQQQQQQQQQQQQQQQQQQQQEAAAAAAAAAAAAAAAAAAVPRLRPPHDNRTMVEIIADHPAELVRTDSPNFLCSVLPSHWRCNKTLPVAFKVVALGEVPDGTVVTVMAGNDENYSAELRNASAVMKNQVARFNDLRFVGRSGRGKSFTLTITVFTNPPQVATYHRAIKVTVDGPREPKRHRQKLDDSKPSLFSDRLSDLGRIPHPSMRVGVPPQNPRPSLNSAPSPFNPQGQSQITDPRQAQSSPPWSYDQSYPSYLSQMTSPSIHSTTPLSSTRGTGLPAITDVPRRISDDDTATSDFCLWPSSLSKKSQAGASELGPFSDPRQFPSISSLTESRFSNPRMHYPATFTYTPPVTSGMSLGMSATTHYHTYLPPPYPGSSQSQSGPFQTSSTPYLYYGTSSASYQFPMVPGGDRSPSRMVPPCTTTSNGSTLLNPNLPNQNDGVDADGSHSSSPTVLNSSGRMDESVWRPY
Strep-mRunx2 R236K (Q08775, form named): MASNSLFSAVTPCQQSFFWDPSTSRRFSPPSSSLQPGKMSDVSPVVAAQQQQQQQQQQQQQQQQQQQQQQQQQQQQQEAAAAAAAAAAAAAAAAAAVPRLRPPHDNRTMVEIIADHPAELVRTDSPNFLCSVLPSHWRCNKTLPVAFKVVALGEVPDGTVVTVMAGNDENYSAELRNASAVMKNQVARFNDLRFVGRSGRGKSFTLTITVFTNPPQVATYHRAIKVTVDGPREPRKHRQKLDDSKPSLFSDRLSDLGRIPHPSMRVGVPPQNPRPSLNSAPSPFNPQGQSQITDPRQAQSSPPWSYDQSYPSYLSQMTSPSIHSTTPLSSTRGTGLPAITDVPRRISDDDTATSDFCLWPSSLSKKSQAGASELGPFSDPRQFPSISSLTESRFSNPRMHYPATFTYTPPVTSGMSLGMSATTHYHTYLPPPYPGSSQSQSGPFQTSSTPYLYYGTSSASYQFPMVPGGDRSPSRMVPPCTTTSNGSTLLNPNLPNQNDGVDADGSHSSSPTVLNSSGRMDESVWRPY
Strep-mRunx2 R25K (Q08775, form named): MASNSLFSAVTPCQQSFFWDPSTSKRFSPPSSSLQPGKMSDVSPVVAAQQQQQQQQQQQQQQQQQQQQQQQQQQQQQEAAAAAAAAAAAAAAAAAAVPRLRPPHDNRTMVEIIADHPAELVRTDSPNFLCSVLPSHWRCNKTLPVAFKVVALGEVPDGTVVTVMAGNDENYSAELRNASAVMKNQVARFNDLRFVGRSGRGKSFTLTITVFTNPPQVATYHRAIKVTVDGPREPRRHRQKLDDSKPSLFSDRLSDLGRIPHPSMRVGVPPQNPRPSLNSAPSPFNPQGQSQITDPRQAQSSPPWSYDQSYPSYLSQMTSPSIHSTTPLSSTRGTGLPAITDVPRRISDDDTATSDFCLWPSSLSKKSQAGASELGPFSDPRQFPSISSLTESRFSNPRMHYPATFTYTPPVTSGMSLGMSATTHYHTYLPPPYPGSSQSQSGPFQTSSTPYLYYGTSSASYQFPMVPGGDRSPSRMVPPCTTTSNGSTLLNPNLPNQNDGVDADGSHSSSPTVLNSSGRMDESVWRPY
Strep-mRunx2 R26K (Q08775, form named): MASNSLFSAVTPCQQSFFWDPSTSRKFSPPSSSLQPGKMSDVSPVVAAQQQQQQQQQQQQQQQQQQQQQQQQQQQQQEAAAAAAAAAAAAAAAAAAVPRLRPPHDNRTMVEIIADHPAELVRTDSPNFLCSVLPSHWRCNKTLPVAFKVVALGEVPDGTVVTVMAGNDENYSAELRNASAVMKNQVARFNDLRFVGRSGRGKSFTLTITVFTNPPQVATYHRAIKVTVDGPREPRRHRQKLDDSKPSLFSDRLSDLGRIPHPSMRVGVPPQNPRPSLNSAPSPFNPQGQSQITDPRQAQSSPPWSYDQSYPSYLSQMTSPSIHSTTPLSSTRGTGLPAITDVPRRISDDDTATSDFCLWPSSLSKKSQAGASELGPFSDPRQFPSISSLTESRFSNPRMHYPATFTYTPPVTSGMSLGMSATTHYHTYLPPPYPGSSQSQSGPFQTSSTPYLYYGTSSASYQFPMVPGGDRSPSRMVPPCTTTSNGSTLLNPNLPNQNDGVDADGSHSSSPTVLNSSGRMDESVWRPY
Strep-mRunx2 R381K (Q08775, form named): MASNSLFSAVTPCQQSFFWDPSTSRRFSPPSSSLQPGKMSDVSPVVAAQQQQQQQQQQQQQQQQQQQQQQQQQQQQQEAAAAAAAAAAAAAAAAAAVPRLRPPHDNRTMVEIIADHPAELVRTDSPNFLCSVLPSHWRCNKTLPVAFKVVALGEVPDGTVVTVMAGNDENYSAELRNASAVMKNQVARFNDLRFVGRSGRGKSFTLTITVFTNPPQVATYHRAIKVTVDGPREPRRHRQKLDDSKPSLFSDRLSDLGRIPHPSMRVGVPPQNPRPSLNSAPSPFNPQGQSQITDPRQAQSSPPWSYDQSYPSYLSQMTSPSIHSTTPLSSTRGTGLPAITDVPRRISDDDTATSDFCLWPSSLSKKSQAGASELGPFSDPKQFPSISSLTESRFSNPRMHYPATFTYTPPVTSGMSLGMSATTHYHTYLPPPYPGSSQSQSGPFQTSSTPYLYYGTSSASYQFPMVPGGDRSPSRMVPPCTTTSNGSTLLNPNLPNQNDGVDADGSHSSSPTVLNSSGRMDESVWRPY
Strep-mRunx2 R393K (Q08775, form named): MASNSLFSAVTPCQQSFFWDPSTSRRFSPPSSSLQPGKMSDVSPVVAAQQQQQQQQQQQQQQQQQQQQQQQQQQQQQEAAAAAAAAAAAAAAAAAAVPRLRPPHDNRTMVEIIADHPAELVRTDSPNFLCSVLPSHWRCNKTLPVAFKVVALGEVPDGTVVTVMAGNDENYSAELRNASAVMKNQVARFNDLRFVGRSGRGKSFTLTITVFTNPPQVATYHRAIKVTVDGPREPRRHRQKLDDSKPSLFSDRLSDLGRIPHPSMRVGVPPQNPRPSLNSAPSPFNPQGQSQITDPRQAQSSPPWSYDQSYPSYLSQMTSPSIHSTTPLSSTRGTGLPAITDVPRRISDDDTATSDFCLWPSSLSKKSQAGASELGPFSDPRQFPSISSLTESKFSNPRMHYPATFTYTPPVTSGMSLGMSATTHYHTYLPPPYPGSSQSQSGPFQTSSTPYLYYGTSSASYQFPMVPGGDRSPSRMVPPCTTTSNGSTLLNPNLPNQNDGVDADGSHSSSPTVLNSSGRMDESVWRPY
UniProt Q08024: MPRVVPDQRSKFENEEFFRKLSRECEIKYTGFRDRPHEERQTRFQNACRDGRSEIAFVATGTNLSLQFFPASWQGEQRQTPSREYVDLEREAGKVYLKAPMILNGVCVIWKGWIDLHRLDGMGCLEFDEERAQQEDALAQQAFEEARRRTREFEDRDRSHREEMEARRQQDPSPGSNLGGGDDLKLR

Columns and labels:
Assay in all cases: co-IP; 293T cells transfected with Strep-Runx2 Wt or R-to-K mutants with or without Myc-Cbfβ, 3 days; lysate incubated with MagStrep type3 XT (Strep-Tag II) magnetic beads overnight at 4 °C; washed four times with IP lysis buffer (25 mM Tris-HCl pH 7.4, 150 mM NaCl, 1% NP-40, 1 mM EDTA, 5% glycerol); immunoblot; Strep-RUNX2 expression levels adjusted to be similar
[1] = biological target: Strep-mRunx2 R188K (mouse) (UniProt Q08775)
[2] = biological target: Strep-mRunx2 R193K (mouse) (UniProt Q08775)
[3] = biological target: Strep-mRunx2 R197K (mouse) (UniProt Q08775)
[4] = biological target: Strep-mRunx2 R232K (mouse) (UniProt Q08775)
[5] = biological target: Strep-mRunx2 R235K (mouse) (UniProt Q08775)
[6] = biological target: Strep-mRunx2 R236K (mouse) (UniProt Q08775)
[7] = biological target: Strep-mRunx2 R25K (mouse) (UniProt Q08775)
[8] = biological target: Strep-mRunx2 R26K (mouse) (UniProt Q08775)
[9] = biological target: Strep-mRunx2 R381K (mouse) (UniProt Q08775)
[10] = biological target: Strep-mRunx2 R393K (mouse) (UniProt Q08775)
[11] = biological target: Strep-mRunx2 wild-type (mouse) (UniProt Q08775)

Measured: binding

Myc-Cbfβ (from UniProt Q08024 1-187)
binds: all assays above
